Results as given in paper PMC12077101.
Results are given in words; binding and its absence hold for the method and conditions named. Binding seen in cells or lysates may run through a third protein. Some entries that bind do so weakly or less than the wild type. For some assays here: Tags and fused reporters may be left off the sequences shown. Each block holds one molecule with its values, some of them ahead of it.

By UniProt entry, the sequences of proteins in these tests, tags left out.
UniProt Q86WV6: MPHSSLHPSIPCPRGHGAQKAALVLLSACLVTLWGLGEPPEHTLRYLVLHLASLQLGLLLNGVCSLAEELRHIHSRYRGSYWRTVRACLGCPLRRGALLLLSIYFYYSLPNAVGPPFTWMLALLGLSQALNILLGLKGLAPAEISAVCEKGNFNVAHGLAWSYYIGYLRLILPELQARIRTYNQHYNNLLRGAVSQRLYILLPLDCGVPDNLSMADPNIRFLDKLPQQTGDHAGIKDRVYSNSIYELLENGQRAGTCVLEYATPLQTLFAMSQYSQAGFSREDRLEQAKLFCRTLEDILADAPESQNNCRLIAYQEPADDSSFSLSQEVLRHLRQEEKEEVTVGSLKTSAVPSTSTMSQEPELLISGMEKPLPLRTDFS

Key:
[1] = molecular target: T1, Flag-AUP1, full length, expressed in HeLa cells (human) (UniProt Q9Y679); experiment: co-IP; HeLa cells transfected with a Flag-tagged plasmid for 24 h, partner endogenous; Pierce IP Lysis Buffer; anti-Flag antibody or IgG; immunoblot; in Fig. 2E cells were then transfected with HT-DNA for the indicated times (interaction substantially decreased)
T1 sequence: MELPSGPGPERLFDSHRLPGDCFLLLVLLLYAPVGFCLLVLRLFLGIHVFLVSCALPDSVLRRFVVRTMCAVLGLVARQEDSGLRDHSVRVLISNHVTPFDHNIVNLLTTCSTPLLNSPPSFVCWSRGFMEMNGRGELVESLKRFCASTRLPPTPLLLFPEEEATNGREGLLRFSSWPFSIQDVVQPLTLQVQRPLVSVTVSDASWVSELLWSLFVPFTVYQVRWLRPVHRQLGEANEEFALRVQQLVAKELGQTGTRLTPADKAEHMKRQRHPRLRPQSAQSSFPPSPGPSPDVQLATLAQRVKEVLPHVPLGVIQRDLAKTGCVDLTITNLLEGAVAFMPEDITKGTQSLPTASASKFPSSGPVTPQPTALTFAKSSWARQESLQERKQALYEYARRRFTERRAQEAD

[2] = molecular target: T2, Flag-tagged AUP1, full length, expressed in HEK293T cells (human) (UniProt Q9Y679); experiment: co-IP; HEK293T cells co-transfected with both tagged plasmids for 24 h; Pierce IP Lysis Buffer; anti-Flag antibody or normal IgG overnight at 4°C, beads 6 h, six washes with cold PBS; immunoblot
T2 sequence: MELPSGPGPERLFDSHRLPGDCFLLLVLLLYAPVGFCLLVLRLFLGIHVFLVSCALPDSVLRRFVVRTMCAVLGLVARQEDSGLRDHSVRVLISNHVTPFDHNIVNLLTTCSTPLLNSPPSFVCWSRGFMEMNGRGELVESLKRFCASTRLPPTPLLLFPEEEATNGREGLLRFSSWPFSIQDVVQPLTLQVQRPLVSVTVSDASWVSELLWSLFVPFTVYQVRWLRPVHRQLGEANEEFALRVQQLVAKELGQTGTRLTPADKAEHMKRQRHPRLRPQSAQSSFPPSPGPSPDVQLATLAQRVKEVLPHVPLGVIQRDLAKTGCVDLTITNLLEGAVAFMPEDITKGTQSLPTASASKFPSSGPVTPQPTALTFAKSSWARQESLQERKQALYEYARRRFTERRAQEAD

[3] = molecular target: T3, Flag-tagged AUP1 1-93 (transmembrane domain only) (human) (UniProt Q9Y679); experiment: as above
T3 sequence: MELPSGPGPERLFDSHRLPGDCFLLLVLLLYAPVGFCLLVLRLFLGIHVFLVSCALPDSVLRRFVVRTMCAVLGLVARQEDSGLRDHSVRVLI

[4] = molecular target: Flag-STING (stimulator of interferon genes), full length, expressed in HEK293T cells (human) (UniProt Q86WV6); experiment: as above
[5] = molecular target: Flag-STING, full length, expressed in HeLa cells (human) (UniProt Q86WV6); experiment: co-IP; HeLa cells transfected with a Flag-tagged plasmid for 24 h, partner endogenous; Pierce IP Lysis Buffer; anti-Flag antibody or IgG; immunoblot; in Fig. 2E cells were then transfected with HT-DNA for the indicated times (interaction substantially decreased)

Molecule: endogenous STING of HeLa cells (from UniProt Q86WV6 1-379)
binding [1]: binds

B1: V5-AUP1 (ancient ubiquitous protein 1), full length, expressed in HEK293T cells (protein, UniProt Q9Y679 1-410)
chain: MELPSGPGPERLFDSHRLPGDCFLLLVLLLYAPVGFCLLVLRLFLGIHVFLVSCALPDSVLRRFVVRTMCAVLGLVARQEDSGLRDHSVRVLISNHVTPFDHNIVNLLTTCSTPLLNSPPSFVCWSRGFMEMNGRGELVESLKRFCASTRLPPTPLLLFPEEEATNGREGLLRFSSWPFSIQDVVQPLTLQVQRPLVSVTVSDASWVSELLWSLFVPFTVYQVRWLRPVHRQLGEANEEFALRVQQLVAKELGQTGTRLTPADKAEHMKRQRHPRLRPQSAQSSFPPSPGPSPDVQLATLAQRVKEVLPHVPLGVIQRDLAKTGCVDLTITNLLEGAVAFMPEDITKGTQSLPTASASKFPSSGPVTPQPTALTFAKSSWARQESLQERKQALYEYARRRFTERRAQEAD
binding [4]: binds

Other lines, results leading:

binding [2]: binds
binding [3]: binds weakly
Molecule: HA-tagged STING (pCDNA3.1-3×HA-TMEM173), expressed in HEK293T cells (from UniProt Q86WV6 1-379)

binding [5]: binds
B2: endogenous AUP1 of HeLa cells (protein, UniProt Q9Y679 1-410)
chain: MELPSGPGPERLFDSHRLPGDCFLLLVLLLYAPVGFCLLVLRLFLGIHVFLVSCALPDSVLRRFVVRTMCAVLGLVARQEDSGLRDHSVRVLISNHVTPFDHNIVNLLTTCSTPLLNSPPSFVCWSRGFMEMNGRGELVESLKRFCASTRLPPTPLLLFPEEEATNGREGLLRFSSWPFSIQDVVQPLTLQVQRPLVSVTVSDASWVSELLWSLFVPFTVYQVRWLRPVHRQLGEANEEFALRVQQLVAKELGQTGTRLTPADKAEHMKRQRHPRLRPQSAQSSFPPSPGPSPDVQLATLAQRVKEVLPHVPLGVIQRDLAKTGCVDLTITNLLEGAVAFMPEDITKGTQSLPTASASKFPSSGPVTPQPTALTFAKSSWARQESLQERKQALYEYARRRFTERRAQEAD
